Experimental data published in US20090111753A1, “Nogo-A Polypeptide Fragments, Variant Nogo Receptor-1 Polypeptides, and Uses Thereof” (Yale University, priority 2004, published 2009).
No constants are given. Whether binding was seen depends on the method and setting. Some entries that bind do so weakly or less than the wild type.

Legend:
Test in all cases: AP-ligand binding, COS-7
[1] = target: T1, human NgR1 alanine mutant 117, 119, 120 (human) (UniProt Q9BZR6)
T1 sequence: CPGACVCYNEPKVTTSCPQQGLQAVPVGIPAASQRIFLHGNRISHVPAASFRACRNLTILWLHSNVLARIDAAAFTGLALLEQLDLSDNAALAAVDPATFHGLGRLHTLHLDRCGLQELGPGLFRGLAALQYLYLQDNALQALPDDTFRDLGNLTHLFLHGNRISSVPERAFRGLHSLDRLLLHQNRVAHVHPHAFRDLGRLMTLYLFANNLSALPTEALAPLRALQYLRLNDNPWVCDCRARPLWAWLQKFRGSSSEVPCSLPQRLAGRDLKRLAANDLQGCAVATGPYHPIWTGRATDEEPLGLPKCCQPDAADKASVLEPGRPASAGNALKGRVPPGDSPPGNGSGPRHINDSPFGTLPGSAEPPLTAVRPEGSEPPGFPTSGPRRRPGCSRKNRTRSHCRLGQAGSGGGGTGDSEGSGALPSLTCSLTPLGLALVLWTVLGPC

[2] = target: T2, human NgR1 alanine mutant 237, 256, 284 (human) (UniProt Q9BZR6)
T2 sequence: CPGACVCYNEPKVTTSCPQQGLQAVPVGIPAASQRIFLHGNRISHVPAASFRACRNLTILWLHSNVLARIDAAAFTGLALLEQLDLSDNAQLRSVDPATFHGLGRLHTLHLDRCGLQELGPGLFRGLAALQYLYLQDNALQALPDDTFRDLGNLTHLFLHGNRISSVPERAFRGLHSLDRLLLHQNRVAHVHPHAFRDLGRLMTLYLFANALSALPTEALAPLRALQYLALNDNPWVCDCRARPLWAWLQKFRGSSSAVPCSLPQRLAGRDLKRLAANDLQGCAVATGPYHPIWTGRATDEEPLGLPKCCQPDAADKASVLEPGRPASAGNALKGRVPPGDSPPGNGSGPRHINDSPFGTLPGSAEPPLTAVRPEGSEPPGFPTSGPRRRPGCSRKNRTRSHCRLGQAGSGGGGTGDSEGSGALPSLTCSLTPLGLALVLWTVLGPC

[3] = target: T3, human NgR1 alanine mutant 237, 256, 259 (human) (UniProt Q9BZR6)
T3 sequence: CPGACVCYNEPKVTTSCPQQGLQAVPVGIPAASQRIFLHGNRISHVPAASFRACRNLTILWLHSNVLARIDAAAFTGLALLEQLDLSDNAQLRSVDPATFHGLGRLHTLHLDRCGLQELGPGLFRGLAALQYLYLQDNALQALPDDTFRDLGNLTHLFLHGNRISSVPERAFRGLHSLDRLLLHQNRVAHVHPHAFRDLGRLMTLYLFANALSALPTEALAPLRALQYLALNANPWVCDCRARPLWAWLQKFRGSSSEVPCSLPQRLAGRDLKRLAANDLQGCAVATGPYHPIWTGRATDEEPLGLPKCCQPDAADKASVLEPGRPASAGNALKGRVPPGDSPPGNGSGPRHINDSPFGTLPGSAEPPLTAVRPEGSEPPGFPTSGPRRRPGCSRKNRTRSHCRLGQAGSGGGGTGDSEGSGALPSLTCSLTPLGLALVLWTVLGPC

[4] = target: T4, human NgR1 alanine mutant 220, 223, 224 (human) (UniProt Q9BZR6)
T4 sequence: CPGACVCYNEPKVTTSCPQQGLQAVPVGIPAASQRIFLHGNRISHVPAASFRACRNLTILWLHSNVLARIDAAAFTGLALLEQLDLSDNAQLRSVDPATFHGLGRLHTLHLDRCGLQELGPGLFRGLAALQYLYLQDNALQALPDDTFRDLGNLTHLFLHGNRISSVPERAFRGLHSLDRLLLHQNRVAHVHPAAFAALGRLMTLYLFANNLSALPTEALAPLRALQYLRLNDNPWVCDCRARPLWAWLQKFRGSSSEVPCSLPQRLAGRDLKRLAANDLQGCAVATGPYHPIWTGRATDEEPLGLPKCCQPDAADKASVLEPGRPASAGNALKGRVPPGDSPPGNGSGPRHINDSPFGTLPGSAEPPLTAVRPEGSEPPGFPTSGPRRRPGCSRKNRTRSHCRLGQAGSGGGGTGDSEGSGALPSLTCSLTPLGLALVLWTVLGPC

[5] = target: T5, human NgR1 alanine mutant 122 (human) (UniProt Q9BZR6)
T5 sequence: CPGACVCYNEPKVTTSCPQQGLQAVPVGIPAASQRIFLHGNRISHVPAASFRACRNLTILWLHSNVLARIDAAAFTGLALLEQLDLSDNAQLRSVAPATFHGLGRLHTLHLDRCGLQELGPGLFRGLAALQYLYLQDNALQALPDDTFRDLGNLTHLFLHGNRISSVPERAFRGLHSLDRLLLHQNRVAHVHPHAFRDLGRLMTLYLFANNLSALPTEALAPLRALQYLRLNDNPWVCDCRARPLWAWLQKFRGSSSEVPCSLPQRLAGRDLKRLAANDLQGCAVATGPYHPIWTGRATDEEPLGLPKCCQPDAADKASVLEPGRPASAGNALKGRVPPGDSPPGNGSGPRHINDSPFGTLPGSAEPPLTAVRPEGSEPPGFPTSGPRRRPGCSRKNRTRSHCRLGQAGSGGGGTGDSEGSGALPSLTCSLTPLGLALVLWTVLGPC

[6] = target: T6, human NgR1 alanine mutant 189, 191, 284 (human) (UniProt Q9BZR6)
T6 sequence: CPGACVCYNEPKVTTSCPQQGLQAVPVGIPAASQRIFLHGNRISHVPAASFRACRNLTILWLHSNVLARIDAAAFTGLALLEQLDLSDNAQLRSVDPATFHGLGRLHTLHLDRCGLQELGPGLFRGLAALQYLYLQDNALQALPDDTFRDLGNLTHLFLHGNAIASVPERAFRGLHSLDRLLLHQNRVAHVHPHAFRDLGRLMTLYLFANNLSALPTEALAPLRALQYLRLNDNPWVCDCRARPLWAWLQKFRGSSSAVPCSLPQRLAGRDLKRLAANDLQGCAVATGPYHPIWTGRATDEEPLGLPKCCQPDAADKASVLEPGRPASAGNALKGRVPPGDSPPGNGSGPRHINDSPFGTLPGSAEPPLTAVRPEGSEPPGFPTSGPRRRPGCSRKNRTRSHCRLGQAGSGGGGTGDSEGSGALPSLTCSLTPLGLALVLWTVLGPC

Measured: binding

B1: AP-Nogo-66 (ligand, UniProt Q9NQC3 1055-1120, looked up)
chain: RIYKGVIQAIQKSDEGHPFRAYLESEVAISEELVQKYSNSALGHVNCTIKELRRLFLVDDLVDSLK
notes: domain: Nogo-66; construct described elsewhere (Fournier 2001); also called AP-Ng66; Ng66; not shown: alkaline phosphatase (AP); construct described elsewhere
binds: [1] | [2] | [3] | [4] | [5] | [6]

B2: AP-fused Amino-Nogo fragment B4C (a.a. 950-1018) (ligand)
chain: LLPPDVSALATQAEIESIVKPKVLVKEAEKKLPSDTEKEDRSPSAIFSAELSKTSVVDLLYWRDIKKTG
notes: also called AmNg B4C; AP-B4C; not shown: alkaline phosphatase (AP), vector pcAP6
binds: [1] | [2] | [3] | [4] | [5] | [6]
